This assay addresses Src-homology protein tyrosine phosphatase-1 (SHP-1) (mouse (endogenous in F9)) (UniProt P29351). Briefly: co-IP; F9 cell lysates in non-denaturing lysis buffer incubated overnight with rabbit anti-SHP-1 or rabbit anti-STAT3, protein A/G beads 3 h at 4°C, western blot; rabbit IgG as negative control. (In western blotting, separated proteins are transferred to a membrane and probed.)

By UniProt entry, the sequences of proteins in these tests, tags left out.
UniProt P29351: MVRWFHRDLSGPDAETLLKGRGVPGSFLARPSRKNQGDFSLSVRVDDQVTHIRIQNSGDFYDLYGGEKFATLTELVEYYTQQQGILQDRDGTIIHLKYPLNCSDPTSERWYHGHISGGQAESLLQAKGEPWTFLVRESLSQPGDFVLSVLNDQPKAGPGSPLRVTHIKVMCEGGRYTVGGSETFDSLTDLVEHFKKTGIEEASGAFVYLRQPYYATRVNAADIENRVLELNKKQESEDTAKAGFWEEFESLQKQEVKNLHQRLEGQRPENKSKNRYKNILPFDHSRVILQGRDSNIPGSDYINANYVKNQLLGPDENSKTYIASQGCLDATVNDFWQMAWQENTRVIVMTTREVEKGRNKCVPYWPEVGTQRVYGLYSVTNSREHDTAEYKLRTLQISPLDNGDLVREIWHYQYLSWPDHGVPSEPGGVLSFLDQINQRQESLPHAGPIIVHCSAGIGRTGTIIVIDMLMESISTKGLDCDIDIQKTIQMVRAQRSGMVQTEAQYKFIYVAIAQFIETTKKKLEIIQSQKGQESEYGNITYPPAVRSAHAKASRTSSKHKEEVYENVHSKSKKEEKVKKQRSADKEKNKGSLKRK
UniProt P42227: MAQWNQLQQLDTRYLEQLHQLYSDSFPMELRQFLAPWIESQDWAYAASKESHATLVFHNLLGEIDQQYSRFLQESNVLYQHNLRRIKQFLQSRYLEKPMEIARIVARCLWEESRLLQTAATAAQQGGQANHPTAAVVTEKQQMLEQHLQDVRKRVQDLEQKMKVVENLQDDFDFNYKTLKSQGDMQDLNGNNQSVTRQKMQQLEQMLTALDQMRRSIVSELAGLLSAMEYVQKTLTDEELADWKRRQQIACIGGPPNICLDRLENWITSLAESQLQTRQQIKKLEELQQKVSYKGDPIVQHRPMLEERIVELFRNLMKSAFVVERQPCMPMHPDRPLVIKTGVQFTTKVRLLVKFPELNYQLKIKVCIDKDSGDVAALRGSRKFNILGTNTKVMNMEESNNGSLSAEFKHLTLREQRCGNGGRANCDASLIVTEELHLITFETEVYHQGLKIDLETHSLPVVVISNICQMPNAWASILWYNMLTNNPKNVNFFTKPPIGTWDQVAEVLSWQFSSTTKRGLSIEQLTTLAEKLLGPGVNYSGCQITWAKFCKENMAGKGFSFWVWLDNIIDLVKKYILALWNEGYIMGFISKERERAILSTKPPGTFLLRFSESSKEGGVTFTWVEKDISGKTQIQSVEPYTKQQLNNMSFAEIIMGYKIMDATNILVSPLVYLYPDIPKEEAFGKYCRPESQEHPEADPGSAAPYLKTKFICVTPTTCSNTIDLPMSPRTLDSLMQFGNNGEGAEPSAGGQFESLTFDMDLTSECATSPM

These are yes or no findings as the source states them, for the method shown. Binding seen in cells or lysates may run through a third protein. Some results given as binding are weak or reduced against the parent protein; the word gives no strength.

Turning to “signal transducer and activator of transcription 3 (STAT3) (from UniProt P42227 1-770)”, the binding entry is recorded as “binds”.
